Numbering of substitutions follows the chain as printed. Names may count otherwise. No constants are given. Whether binding was seen depends on the method and setting. For some of these results: In cells and extracts the contact can be indirect. Some binding calls cover weakened binding; strength is not graded here. For some of these results: Where a sequence is shown, tags or fusion partners need not be part of it.

Chains of the proteins cited; added tags and fusions are not shown. Lines headed by an entry give the natural chain unless they say otherwise; changes in a name come on top. Residues count along the entry.
UniProt O15027, 1-1101: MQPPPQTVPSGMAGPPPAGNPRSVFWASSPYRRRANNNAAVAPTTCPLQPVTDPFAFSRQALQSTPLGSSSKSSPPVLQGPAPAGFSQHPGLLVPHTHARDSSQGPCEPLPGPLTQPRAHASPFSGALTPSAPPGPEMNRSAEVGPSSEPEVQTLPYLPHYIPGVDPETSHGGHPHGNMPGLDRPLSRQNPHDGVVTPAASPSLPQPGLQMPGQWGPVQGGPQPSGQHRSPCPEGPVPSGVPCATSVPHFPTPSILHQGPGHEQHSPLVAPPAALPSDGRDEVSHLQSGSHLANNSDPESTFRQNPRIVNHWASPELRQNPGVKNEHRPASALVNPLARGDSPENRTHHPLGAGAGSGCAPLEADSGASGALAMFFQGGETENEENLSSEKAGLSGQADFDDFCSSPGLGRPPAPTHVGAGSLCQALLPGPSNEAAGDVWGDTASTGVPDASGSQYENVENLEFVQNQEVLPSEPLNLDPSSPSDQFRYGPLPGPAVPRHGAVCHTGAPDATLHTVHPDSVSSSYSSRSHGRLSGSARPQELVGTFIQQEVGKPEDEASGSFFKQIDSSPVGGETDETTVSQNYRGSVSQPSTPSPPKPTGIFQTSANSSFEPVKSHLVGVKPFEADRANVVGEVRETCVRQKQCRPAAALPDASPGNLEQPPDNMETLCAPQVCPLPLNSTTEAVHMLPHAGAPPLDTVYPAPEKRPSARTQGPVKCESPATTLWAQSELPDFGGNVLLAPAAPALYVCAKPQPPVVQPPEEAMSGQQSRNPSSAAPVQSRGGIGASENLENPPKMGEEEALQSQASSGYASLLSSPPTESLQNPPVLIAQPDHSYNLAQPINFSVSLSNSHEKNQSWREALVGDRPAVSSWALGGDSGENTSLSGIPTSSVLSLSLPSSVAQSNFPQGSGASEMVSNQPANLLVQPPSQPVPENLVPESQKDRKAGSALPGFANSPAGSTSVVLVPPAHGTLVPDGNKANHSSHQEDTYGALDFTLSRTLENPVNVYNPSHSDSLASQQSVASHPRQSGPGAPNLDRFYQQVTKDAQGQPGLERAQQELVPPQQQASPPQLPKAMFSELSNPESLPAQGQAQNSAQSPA
UniProt O15027, 511-1100: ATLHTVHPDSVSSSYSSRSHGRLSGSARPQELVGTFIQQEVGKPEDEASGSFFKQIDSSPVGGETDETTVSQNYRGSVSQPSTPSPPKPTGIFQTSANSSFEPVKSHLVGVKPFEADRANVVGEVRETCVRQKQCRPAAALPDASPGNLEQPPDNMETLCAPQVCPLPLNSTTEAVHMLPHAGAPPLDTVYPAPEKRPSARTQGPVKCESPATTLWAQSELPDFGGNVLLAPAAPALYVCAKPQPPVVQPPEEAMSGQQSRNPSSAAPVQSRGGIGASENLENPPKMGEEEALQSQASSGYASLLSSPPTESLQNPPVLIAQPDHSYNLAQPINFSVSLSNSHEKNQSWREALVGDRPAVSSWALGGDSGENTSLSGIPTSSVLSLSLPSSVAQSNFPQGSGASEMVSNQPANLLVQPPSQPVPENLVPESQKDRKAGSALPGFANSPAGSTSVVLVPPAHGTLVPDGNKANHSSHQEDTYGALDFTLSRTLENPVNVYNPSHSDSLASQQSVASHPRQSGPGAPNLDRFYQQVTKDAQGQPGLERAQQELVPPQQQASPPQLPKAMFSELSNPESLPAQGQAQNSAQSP
UniProt O15027, 1101-1890: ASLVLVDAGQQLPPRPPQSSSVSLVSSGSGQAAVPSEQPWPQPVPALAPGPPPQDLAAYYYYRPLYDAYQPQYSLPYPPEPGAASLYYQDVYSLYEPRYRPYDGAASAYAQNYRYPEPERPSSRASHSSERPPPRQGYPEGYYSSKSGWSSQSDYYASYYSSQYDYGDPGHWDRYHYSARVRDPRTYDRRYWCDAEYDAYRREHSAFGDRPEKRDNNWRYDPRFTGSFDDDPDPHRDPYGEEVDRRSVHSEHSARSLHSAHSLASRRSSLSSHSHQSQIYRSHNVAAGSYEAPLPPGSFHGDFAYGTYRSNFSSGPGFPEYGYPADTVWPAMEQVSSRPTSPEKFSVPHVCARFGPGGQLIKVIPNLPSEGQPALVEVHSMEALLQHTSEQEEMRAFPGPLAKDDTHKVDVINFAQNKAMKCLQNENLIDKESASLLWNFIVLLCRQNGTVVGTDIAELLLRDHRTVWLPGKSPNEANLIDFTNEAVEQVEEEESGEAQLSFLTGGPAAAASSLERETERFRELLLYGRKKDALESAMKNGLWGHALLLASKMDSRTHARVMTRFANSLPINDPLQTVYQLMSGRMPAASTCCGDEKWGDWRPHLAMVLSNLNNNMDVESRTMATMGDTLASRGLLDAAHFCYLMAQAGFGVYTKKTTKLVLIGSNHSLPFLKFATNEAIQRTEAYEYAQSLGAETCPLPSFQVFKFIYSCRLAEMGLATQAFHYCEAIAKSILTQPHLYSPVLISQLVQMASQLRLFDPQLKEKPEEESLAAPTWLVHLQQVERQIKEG
UniProt O15027, 1890-2357: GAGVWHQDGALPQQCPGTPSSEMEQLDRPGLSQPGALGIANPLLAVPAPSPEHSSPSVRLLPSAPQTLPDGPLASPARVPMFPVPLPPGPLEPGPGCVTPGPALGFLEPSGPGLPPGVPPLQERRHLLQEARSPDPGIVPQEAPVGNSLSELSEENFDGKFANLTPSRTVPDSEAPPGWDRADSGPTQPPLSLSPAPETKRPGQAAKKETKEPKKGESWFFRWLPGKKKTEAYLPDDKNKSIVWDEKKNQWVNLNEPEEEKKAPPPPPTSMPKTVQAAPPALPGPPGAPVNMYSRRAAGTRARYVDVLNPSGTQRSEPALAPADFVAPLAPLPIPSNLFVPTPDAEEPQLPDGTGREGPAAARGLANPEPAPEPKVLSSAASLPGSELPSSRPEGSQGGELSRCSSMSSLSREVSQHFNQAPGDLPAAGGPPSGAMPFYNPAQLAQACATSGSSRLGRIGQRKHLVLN

The target in test [1] is T1, p115(1-655)-HA-MAO (human) (UniProt O60763).
T1 sequence: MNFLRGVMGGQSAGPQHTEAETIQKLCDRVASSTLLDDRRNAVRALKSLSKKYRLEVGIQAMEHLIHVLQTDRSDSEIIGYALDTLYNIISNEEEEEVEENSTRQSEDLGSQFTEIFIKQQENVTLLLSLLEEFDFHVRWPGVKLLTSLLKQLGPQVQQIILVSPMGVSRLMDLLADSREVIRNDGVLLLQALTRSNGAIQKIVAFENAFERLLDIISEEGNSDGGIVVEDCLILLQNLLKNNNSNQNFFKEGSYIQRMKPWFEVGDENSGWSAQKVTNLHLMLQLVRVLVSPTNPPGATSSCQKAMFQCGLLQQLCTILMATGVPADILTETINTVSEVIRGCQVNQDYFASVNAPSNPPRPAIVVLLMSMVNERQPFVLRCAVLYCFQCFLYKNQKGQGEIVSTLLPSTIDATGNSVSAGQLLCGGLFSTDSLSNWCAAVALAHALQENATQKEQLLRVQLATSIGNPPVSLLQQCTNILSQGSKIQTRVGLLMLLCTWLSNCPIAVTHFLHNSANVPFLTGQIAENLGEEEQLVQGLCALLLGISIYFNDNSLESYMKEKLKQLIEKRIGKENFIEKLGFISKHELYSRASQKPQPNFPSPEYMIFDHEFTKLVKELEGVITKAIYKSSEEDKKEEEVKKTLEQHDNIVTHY
Kind of test: mitochondrial relocation assay.

For test [2], the target named is Sec16A(650-776)-GFP (human) (UniProt O15027). Kind of test: pull-down.
The target is the same in test [3]. Kind of test: co-IP.
Test [4] concerns the target mitochondrial form of Sec16A(650-776) (human) (UniProt O15027). Kind of test: mitochondrial relocation assay.

Regarding “Sec16A(1-1101) fused to GFP (from UniProt O15027 1-1101) (domain or fragment)”, in test [1], the binding result is “binds”.

As to “Sec16A(511-1100) fused to GFP (from UniProt O15027 511-1100) (domain or fragment)”, the binding entry in test [1] was “binds”.

As to “Sec16A(1101-1890) fused to GFP (from UniProt O15027 1101-1890) (domain or fragment)”, in test [1], the binding result is “no binding”.

As for “Sec16A(1890-2357) fused to GFP (from UniProt O15027 1890-2357) (domain or fragment)”, the binding result in test [1] is “no binding”.

B1: flag-tagged p115 head domain (1-655) Q462D (domain or fragment, UniProt O60763 1-655)
chain: T1 sequence with Q462D
Take B1: the binding result in test [2] is “no binding”.

B2: endogenous p115 (HEK293T) (protein, UniProt O60763 1-962)
chain: MNFLRGVMGGQSAGPQHTEAETIQKLCDRVASSTLLDDRRNAVRALKSLSKKYRLEVGIQAMEHLIHVLQTDRSDSEIIGYALDTLYNIISNEEEEEVEENSTRQSEDLGSQFTEIFIKQQENVTLLLSLLEEFDFHVRWPGVKLLTSLLKQLGPQVQQIILVSPMGVSRLMDLLADSREVIRNDGVLLLQALTRSNGAIQKIVAFENAFERLLDIISEEGNSDGGIVVEDCLILLQNLLKNNNSNQNFFKEGSYIQRMKPWFEVGDENSGWSAQKVTNLHLMLQLVRVLVSPTNPPGATSSCQKAMFQCGLLQQLCTILMATGVPADILTETINTVSEVIRGCQVNQDYFASVNAPSNPPRPAIVVLLMSMVNERQPFVLRCAVLYCFQCFLYKNQKGQGEIVSTLLPSTIDATGNSVSAGQLLCGGLFSTDSLSNWCAAVALAHALQENATQKEQLLRVQLATSIGNPPVSLLQQCTNILSQGSKIQTRVGLLMLLCTWLSNCPIAVTHFLHNSANVPFLTGQIAENLGEEEQLVQGLCALLLGISIYFNDNSLESYMKEKLKQLIEKRIGKENFIEKLGFISKHELYSRASQKPQPNFPSPEYMIFDHEFTKLVKELEGVITKAIYKSSEEDKKEEEVKKTLEQHDNIVTHYKNMIREQDLQLEELRQQVSTLKCQNEQLQTAVTQQVSQIQQHKDQYNLLKIQLGKDNQHQGSYSEGAQMNGIQPEEIGRLREEIEELKRNQELLQSQLTEKDSMIENMKSSQTSGTNEQSSAIVSARDSEQVAELKQELATLKSQLNSQSVEITKLQTEKQELLQKTEAFAKSVEVQGETETIIATKTTDVEGRLSALLQETKELKNEIKALSEERTAIKEQLDSSNSTIAILQTEKDKLELEITDSKKEQDDLLVLLADQDQKILSLKNKLKDLGHPVEEEDELESGDQEDEDDESEDPGKDLDHI
As for B2, the binding result in test [3] is reported as “binds”.

B3: endogenous p115 (HeLa) (protein, UniProt O60763 1-962)
chain: B2 chain
For the molecule B3, in test [4], the binding result was “binds”.

For the origin of these results see doi:10.1101/2025.10.16.682774 (bioRxiv, 2025).
